# Source: the supplement of paper PMC3334620
# The full ranking holds about 33,000 sequences; the median of “E-score (-0.5 to 0.5)” is about -8e-05, and the highest 2% start at about 0.23. Some of the results follow.
# Biological target: T1, Nrg2 (UniProt P38082)
# T1 sequence: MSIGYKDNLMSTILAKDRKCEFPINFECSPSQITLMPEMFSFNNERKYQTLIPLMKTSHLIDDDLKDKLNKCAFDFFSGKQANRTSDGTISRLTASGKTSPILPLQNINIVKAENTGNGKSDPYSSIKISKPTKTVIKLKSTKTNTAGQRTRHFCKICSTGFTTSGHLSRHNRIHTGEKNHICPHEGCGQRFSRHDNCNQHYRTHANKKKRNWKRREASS
# Experiment: PBM E-score (8-mer binding enrichment) (E-score (-0.5 to 0.5)); higher = stronger / more preferred TF binding
# Details: protein concentration: 100 nM; construct: GST-full length
# How it was run: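 Masliner-normalised scans of fluorescent anti-GST signal were the basis for scoring. That signal came from GST-tagged yeast transcription factors applied at about 100-200 nM to double-stranded universal all-10-mer Agilent arrays on fresh or once-stripped slides. Each ungapped eight-base word, pooled with its reverse complement, received an E-score from the Universal PBM Analysis Suite.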
row,Sequence,PBM E-score
1,GTAACCAC,-0.21
2,TGCGGCAA,-0.0076
3,GCTGGCTA,-0.142
4,ATATGTAG,0.00142
5,AAAACACG,0.0805
6,CCAGCGGG,-0.0833
7,ATGCAGAA,0.151
8,GCAGTAAA,-0.0439
9,AGTTTTCC,0.178
10,AGCTTAAC,-0.0699
11,CCTTCTAA,-0.126
12,ATATCATG,0.0241
13,CGAATACA,0.0068
14,CATGAATG,0.135
15,ATTATTAC,0.101
16,CCTAGGGC,-0.136
17,ATGTGCAG,-0.0713
18,TGACAACA,0.058
19,ACTAGGCC,-0.192
20,AGAGGTGG,-0.0295
21,AGTAAAGG,0.12
22,GAGCAGAC,-0.093

row,Sequence,PBM E-score
1,CACGCGAG,0.225
2,CACATGCC,-0.0123
3,CTTGGGGA,0.187
4,ACTCGCAT,0.139
5,GTTAGATA,0.14
6,CCGTAAGG,-0.361
7,ACTGAATG,0.122
8,CGCCTACG,-0.117
9,GGAACCTA,-0.06
10,ATGAACGA,0.0704
11,ATTAGGCG,0.0626
12,AATAATCT,0.21
13,TGACCAAA,-0.0504
14,CCCTAGGG,0.0519
15,ATGACATC,0.188
16,CACCTCAA,0.13
17,AAAGACCA,-0.138
18,TTCAGGAA,-0.129
19,CTTGCCAA,0.00852
20,CAGCTCCC,-0.328
21,GGTGACGA,-0.084
22,GAACCTCC,-0.246

row,Sequence,PBM E-score
1,ATTAAACA,0.0199
2,AATATCTA,-0.0725
3,CATCGATA,0.109
4,ACACCCCC,-0.386
5,CGCCGACG,-0.136
6,CAGCTTCC,-0.0666
7,GGCGCCAC,-0.0207
8,GTGGGAAC,-0.0658
9,CATCGGGC,-0.0546
10,AAAGTAAG,-0.116
11,TGGATACA,0.0219
12,CTAAACAC,-0.0264
13,GGCGGACC,0.00587
14,CCCGTTGA,-0.125
15,GCCAGCAA,0.00326
16,ACGACTAA,-0.0548
17,CAAGGCCA,0.0591
18,CGTGAGGC,-0.184
19,CACCTCAG,-0.11
20,AGGGATCG,-0.0308
21,CAGATTGC,0.0918
22,ACCGCCCT,-0.141

row,Sequence,PBM E-score
1,ACGACTAT,0.0778
2,CTCATCCC,-0.234
3,GGCGGGAA,-0.11
4,GCCAACTA,-0.022
5,ATTTAGTC,0.0158
6,CGAAAAGC,-0.0517
7,CAGAGGAA,-0.053
8,CCCGTGTC,-0.0522
9,CCATTCGC,0.0979
10,TGTCGTAA,0.0488
11,TCCAAGCA,-0.0496
12,CTGTCTAA,0.212
13,TCTAGGCA,-0.195
14,CACGGTCG,-0.06
15,GATTCCGC,0.0999
16,GGCTTTTA,-0.316
17,ACGGTGGG,-0.00943
18,ATCGTAAC,0.128
19,CGGTACCG,-0.0366
20,AAATAAGC,0.0818
